# Experimental data from patent US20090029421, “Recombinase polymerase amplification” (published 2009).
# The exact form of at least one protein or probe is not confirmed.
# Biological target: UvsX (T6) (Enterobacteria phage T6) (UniProt P04529)
# Assay: activity assay
# Conditions: RPA amplification with UvsY/gp32; lower final signal than T4 UvsX; purified recombinant protein; protein details: C-terminal His6
sequence,measurement,value
ACGGCATTAACAAACGAACTGATTCATCTGCTTGG / CCTTAATTTCTCCGAGAACTTCATATTCAAGCGTC [J1/K2 RPA primers],activity on this sequence,active
